Results deposited as PubChem BioAssay AID504793 (Drosophila RNAi Screening Center, 2011)
Test: 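Knock-downs allowing continued mitosis even though DNA is damaged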 (primary screen). Cell system: Drosophila S2R+ cells. Knock-down reagent: long dsRNA against Drosophila genes, about 0.25 µg dsRNA per well. Duration: 4 days of dsRNA, then 4 hours of drug before read-out. Challenge: doxorubicin 0.5 µM for 4 hours to cause double-strand breaks, in cells also given a low, harmless dose of dsRNA against nbs to sensitise the assay. Measured: 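Per-well count of mitotic cells stained for phospho-histone H3 after doxorubicin exposure, used as mitotic index; counts are raw and not normalised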. Reading the numbers: mitotic cells: higher = more cells in mitosis, weaker G2 arrest. Hit rule: 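Genes are called active only when high mitotic counts were reproduced with independent dsRNAs and mitosis was checked for delay without damage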. Calls: active = confirmed in follow-up tests; inactive = not confirmed.
The screen tested about 23,000 reagents; this is an unselected part of those with a known target gene and a result. Of all reagents, 62 (0.27%) were called active. 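Calls come from follow-up tests whose scores are not deposited, so confirmed genes may have low counts here; counts are not normalised per plate.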 Raw values vary from plate to plate and are shown uncorrected. Reagents against one gene are numbered here. No sequences are given here.

target	reagent no.	mitotic cells, replicate 1	activity call
CG2124	1	6	inactive
Sodq (Sodesque)	1	10	inactive
Sodq (Sodesque)	2	7	inactive
Dd (Dullard)	1	2	inactive
Pus7 (Pseudouridine synthase 7)	1	4	inactive
Pus7 (Pseudouridine synthase 7)	2	6	inactive
Srg3 (Sting-regulated gene 3)	1	4	inactive
Srg3 (Sting-regulated gene 3)	2	5	inactive
Elp6 (Elongator complex protein 6)	1	7	inactive
bcn92	1	15	inactive
bcn92	2	4	inactive
trem (trade embargo)	1	3	inactive
aay (astray)	1	6	inactive
Gasz	1	3	inactive
Gasz	2	2	inactive
Ced-12	1	2	inactive
Ced-12	2	13	inactive
WASp	1	6	inactive
WASp	2	10	inactive
Sk1 (Sphingosine kinase 1)	1	12	inactive
Gip (GIP-like)	1	8	inactive
CG13071	1		inactive
CG12702	1	8	inactive
CG12702	2	10	inactive
Pgm2a (Phosphoglucomutase 2a)	1	5	inactive
CG7379	1	10	inactive
CG7379	2	15	inactive
meru	1	17	inactive
meru	2	2	inactive
Mer (Merlin)	1	3	inactive
snsl (snustorr snarlik)	1	5	inactive
snsl (snustorr snarlik)	2	13	inactive
Np (Notopleural)	1	5	inactive
Np (Notopleural)	2	4	inactive
muskelin	1	1	inactive
GC (gamma-glutamyl carboxylase)	1	7	inactive
GC (gamma-glutamyl carboxylase)	2	5	inactive
TwdlU (TweedleU)	1	4	inactive
TwdlU (TweedleU)	2	6	inactive
tkv (thickveins)	1	8	inactive
tkv (thickveins)	2	8	inactive
tkv (thickveins)	3	5	inactive
CG17715	1	10	inactive
CG31342	1	6	inactive
CG31342	2	6	inactive
CG5653	1	4	inactive
CG5653	2	4	inactive
Cpr49Ah (Cuticular protein 49Ah)	1	11	inactive
Cpr49Ah (Cuticular protein 49Ah)	2	4	inactive
CG31861	1	11	inactive
CG31861	2	4	inactive
HemK1 (HemK methyltransferase 1)	1	9	inactive
BTBD9 (BTB (POZ) domain containing 9)	1	5	inactive
BTBD9 (BTB (POZ) domain containing 9)	2	6	inactive
CG9044	1	3	inactive
MED10 (Mediator complex subunit 10)	1	9	inactive
Capr (Caprin)	1	6	inactive
Capr (Caprin)	2	9	inactive
CG18302	1	8	inactive
CG18302	2	7	inactive
tef (teflon)	1	10	inactive
tef (teflon)	2	15	inactive
tef (teflon)	3	11	inactive
GluRS-m (Glutamyl-tRNA synthetase, mitochondrial)	1	5	inactive
GluRS-m (Glutamyl-tRNA synthetase, mitochondrial)	2	9	inactive
CG11069	1	15	inactive
CG12723	1	4	inactive
CG12723	2	13	inactive
Ocrl (Oculocerebrorenal syndrome of Lowe)	1	4	inactive
CG14625	1	5	inactive
CG14625	2	7	inactive
Dci (Dodecenoyl-CoA delta-isomerase)	1	13	inactive
Dci (Dodecenoyl-CoA delta-isomerase)	2	5	inactive
Tsp42Eo (Tetraspanin 42Eo)	1	7	inactive
CG7156	1	5	inactive
CG7156	2	8	inactive

11 entries from above, ordered by “mitotic cells, replicate 1”, highest first.
target	reagent no.	mitotic cells, replicate 1	activity call
CG11069	1	15	inactive
CG12723	2	13	inactive
Dci (Dodecenoyl-CoA delta-isomerase)	1	13	inactive
CG7156	2	8	inactive
CG14625	2	7	inactive
Tsp42Eo (Tetraspanin 42Eo)	1	7	inactive
CG14625	1	5	inactive
Dci (Dodecenoyl-CoA delta-isomerase)	2	5	inactive
CG7156	1	5	inactive
CG12723	1	4	inactive
Ocrl (Oculocerebrorenal syndrome of Lowe)	1	4	inactive
